Reference: paper PMC3795638
No constants are given. Whether binding was seen depends on the method and setting. Binding seen in cells or lysates may run through a third protein. Some binding calls cover weakened binding; strength is not graded here. Where a sequence is shown, tags or fusion partners need not be part of it.

T1: FLAG-g14-3-3 (Giardia duodenalis) (UniProt E2RU97)
T1 sequence (chain, phosphorylated at Thr214; polyglycylated at Glu246 (up to 24 glycines)): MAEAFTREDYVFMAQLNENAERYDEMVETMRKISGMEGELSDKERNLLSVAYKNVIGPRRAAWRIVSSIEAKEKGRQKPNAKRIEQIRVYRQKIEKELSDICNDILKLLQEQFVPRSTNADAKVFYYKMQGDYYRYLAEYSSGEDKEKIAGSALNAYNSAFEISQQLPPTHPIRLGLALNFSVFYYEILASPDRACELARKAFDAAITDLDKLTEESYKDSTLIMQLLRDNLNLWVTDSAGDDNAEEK


Key:
[1] = target: T1, FLAG-g14-3-3 (Giardia duodenalis); assay: co-IP; anti-FLAG M2 agarose incubated with Giardia trophozoite soluble proteins at 4°C for 3 h, washed with K-HT buffer, incubated with 2 mM A8Ap phosphopeptide, eluted with 200 µM FLAG peptide; blot with anti-FLAG and N14 anti-g14-3-3 serum; untransfected WB-C6 as control
[2] = target: 6xHis-g14-3-3 (Giardia duodenalis) (UniProt E2RU97); assay: cross-linking; whole fly lysates cross-linked with 3 mM BS3, resolved on 10% SDS-PAGE, blots probed with antibodies

binding [1]	binding [2]	Binder
binds	–	endogenous g14-3-3 (protein, UniProt E2RU97 1-248, constitutively phosphorylated at Thr214 and polyglycylated at Glu246) MAEAFTREDYVFMAQLNENAERYDEMVETMRKISGMEGELSDKERNLLSVAYKNVIGPRRAAWRIVSSIEAKEKGRQKPNAKRIEQIRVYRQKIEKELSDICNDILKLLQEQFVPRSTNADAKVFYYKMQGDYYRYLAEYSSGEDKEKIAGSALNAYNSAFEISQQLPPTHPIRLGLALNFSVFYYEILASPDRACELARKAFDAAITDLDKLTEESYKDSTLIMQLLRDNLNLWVTDSAGDDNAEEK
–	binds	6xHis-g14-3-3 (protein, UniProt E2RU97 1-248) MAEAFTREDYVFMAQLNENAERYDEMVETMRKISGMEGELSDKERNLLSVAYKNVIGPRRAAWRIVSSIEAKEKGRQKPNAKRIEQIRVYRQKIEKELSDICNDILKLLQEQFVPRSTNADAKVFYYKMQGDYYRYLAEYSSGEDKEKIAGSALNAYNSAFEISQQLPPTHPIRLGLALNFSVFYYEILASPDRACELARKAFDAAITDLDKLTEESYKDSTLIMQLLRDNLNLWVTDSAGDDNAEEK
